Data as given in PubChem BioAssay AID504808 (Drosophila RNAi Screening Center, 2011)
Purpose: 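Genes whose loss lifts activity of an E2F-responsive reporter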 (primary screen). System: Drosophila S2 cells. Knock-down reagent: long dsRNA against Drosophila genes. Detection: 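Firefly luciferase driven by E2F sites, normalised to Renilla luciferase on the same minimal promoter, measured by plate reader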. Scale: E2F firefly: higher = more E2F reporter activity; Renilla normaliser: higher = more normaliser reporter signal. Call rule: 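Called active if the normalised E2F reporter went up by over 50%; the cutoff is arbitrary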.
The deposit covers about 21,000 reagents; this is an unselected part of those that have a named target and a result. Over the whole deposit, 18 (0.084%) were called active. 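Raw counts without plate normalisation, one of two replicates; the ratio scores behind the calls were not deposited.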 The numbers tell different reagents against one gene apart. Names joined by + are all predicted targets of the reagent. The record does not give: the amount of reagent, the time to read-out.

With knock-down of CG17349 the results were E2F firefly, rep 1 = 87232; Renilla normaliser, rep 1 = 3953; inactive. For Lime, the entry reads E2F firefly, rep 1 = 1.09e5; Renilla normaliser, rep 1 = 4430; inactive. For Nplp3, the values are E2F firefly, rep 1 = 1.68e5; Renilla normaliser, rep 1 = 8076; inactive. Knock-down of Fer2 gave: E2F firefly, rep 1 = 1.11e5; Renilla normaliser, rep 1 = 5606; inactive. With knock-down of Pmvk the results were E2F firefly, rep 1 = 98397; Renilla normaliser, rep 1 = 4329; inactive. Against CG32344, the values are E2F firefly, rep 1 = 65296; Renilla normaliser, rep 1 = 3552; inactive.

Ucp4C showed E2F firefly, rep 1 = 1.43e5; Renilla normaliser, rep 1 = 5186; inactive. Silencing of Dlc90F came out at: E2F firefly, rep 1 = 70906; Renilla normaliser, rep 1 = 4304; inactive. Against UQCR-Q the deposit lists E2F firefly, rep 1 = 1.69e5; Renilla normaliser, rep 1 = 7287; inactive. For CG8004, the entry reads E2F firefly, rep 1 = 80599; Renilla normaliser, rep 1 = 3518; inactive. After knock-down of caly the results were E2F firefly, rep 1 = 78908; Renilla normaliser, rep 1 = 3250; inactive. Against CG10321 the deposit lists E2F firefly, rep 1 = 54282; Renilla normaliser, rep 1 = 2750; inactive.

For Socs16D, the values are E2F firefly, rep 1 = 1.98e5; Renilla normaliser, rep 1 = 6558; inactive. Silencing of Ance came out at: E2F firefly, rep 1 = 75519; Renilla normaliser, rep 1 = 3548; inactive. Silencing of Ctr1B + Poxm resulted in: E2F firefly, rep 1 = 1.31e5; Renilla normaliser, rep 1 = 6655; inactive. Against Sgf29, the values are E2F firefly, rep 1 = 84567; Renilla normaliser, rep 1 = 3677; inactive. CG12231 showed E2F firefly, rep 1 = 1.38e5; Renilla normaliser, rep 1 = 6697; inactive. Against Lkr, the values are E2F firefly, rep 1 = 86386; Renilla normaliser, rep 1 = 4000; inactive.

With knock-down of CG32808 the results were E2F firefly, rep 1 = 86631; Renilla normaliser, rep 1 = 2504; inactive. After knock-down of CG12817, the record shows E2F firefly, rep 1 = 1.59e5; Renilla normaliser, rep 1 = 6796; inactive. With knock-down of CG34193 the results were E2F firefly, rep 1 = 1.64e5; Renilla normaliser, rep 1 = 7563; inactive. Against Uba1 the deposit lists E2F firefly, rep 1 = 2854; Renilla normaliser, rep 1 = 212; inactive. CG13046 gave E2F firefly, rep 1 = 1.73e5; Renilla normaliser, rep 1 = 8834; inactive. Knock-down of CR16735 came out at: E2F firefly, rep 1 = 1.22e5; Renilla normaliser, rep 1 = 5254; inactive.

Silencing of Polr2H came out at: E2F firefly, rep 1 = 57527; Renilla normaliser, rep 1 = 3505; inactive. Rbp6 #1 showed E2F firefly, rep 1 = 1.40e5; Renilla normaliser, rep 1 = 4212; inactive. With knock-down of Rbp6 #2, the record shows E2F firefly, rep 1 = 1.57e5; Renilla normaliser, rep 1 = 4076; inactive. With knock-down of Rbp6 #3, the screen gave E2F firefly, rep 1 = 1.65e5; Renilla normaliser, rep 1 = 8526; inactive. Rbp6 #4 gave E2F firefly, rep 1 = 1.54e5; Renilla normaliser, rep 1 = 8258; inactive. Silencing of Rbp6 #5 resulted in: E2F firefly, rep 1 = 1.34e5; Renilla normaliser, rep 1 = 7017; inactive.

5 entries from above in another layout.
Ctr1B + Poxm
- E2F firefly, rep 1: 1.31e5
- Renilla normaliser, rep 1: 6655
- outcome: inactive

Sgf29
- E2F firefly, rep 1: 84567
- Renilla normaliser, rep 1: 3677
- outcome: inactive

CG12231
- E2F firefly, rep 1: 1.38e5
- Renilla normaliser, rep 1: 6697
- outcome: inactive

Lkr
- E2F firefly, rep 1: 86386
- Renilla normaliser, rep 1: 4000
- outcome: inactive

CG32808
- E2F firefly, rep 1: 86631
- Renilla normaliser, rep 1: 2504
- outcome: inactive
